This is one part of the list.
Legend:
Experiment in all cases: log2 fold change, soluble protein after heating vs DMSO (PISA); higher = thermal stabilisation; K562 cells, 10 uM, 30 min; active = over 0.2 and 3.5 SD of the protein, either way, in both replicates (recomputed)
[1] = compound: COC1=CC=C(C=C1)CN2C=CC3=C2C=C(C=C3)C(=O)NO
How it was run: (§1)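 Quantification of soluble protein used TMTpro 16plex LC-MS/MS, with channel sums equalised. Samples were the supernatant after 21,000xg for 90 min of pooled aliquots from K562 cells (2×10^6 cells/mL) treated with 10 μM compound for 30 min, heated for 3 min over 48°C-58°C, and extracted in PBS with 0.5% NP-40 at 4°C. Values, from duplicates, describe thermal stability against control samples on a log2 fold-change scale.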

Chains of the proteins cited; added tags and fusions are not shown. Lines headed by an entry give the natural chain unless they say otherwise; changes in a name come on top.
UniProt Q8TCZ2: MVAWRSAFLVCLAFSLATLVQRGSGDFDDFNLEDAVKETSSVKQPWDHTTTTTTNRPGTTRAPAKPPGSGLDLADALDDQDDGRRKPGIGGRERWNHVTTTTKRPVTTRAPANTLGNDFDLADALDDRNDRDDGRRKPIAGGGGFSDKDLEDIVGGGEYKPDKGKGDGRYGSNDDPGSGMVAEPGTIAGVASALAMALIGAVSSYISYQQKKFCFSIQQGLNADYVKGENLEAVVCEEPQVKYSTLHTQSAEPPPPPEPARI
UniProt Q8N7R7: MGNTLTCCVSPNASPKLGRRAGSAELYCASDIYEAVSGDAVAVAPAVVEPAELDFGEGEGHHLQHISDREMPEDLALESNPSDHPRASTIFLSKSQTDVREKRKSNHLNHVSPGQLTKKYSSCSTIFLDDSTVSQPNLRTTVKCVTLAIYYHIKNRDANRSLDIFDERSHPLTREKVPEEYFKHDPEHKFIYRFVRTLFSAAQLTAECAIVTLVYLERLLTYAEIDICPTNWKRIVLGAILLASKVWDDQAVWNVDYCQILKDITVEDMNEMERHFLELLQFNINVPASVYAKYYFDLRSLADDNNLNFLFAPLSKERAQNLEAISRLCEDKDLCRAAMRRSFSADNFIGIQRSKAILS
UniProt Q8N4S0: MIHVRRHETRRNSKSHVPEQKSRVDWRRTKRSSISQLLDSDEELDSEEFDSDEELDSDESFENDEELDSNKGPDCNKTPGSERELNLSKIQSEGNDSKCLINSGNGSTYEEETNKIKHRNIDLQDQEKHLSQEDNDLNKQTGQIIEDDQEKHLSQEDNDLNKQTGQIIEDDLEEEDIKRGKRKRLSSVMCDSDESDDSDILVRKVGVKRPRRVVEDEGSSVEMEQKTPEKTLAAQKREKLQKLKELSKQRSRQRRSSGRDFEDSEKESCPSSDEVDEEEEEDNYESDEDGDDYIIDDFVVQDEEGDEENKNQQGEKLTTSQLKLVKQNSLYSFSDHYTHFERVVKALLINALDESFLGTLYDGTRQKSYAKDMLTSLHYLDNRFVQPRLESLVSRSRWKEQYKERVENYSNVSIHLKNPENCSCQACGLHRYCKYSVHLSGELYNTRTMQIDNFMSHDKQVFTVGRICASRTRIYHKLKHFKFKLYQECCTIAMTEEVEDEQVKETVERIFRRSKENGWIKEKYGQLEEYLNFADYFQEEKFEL
UniProt Q6PK04: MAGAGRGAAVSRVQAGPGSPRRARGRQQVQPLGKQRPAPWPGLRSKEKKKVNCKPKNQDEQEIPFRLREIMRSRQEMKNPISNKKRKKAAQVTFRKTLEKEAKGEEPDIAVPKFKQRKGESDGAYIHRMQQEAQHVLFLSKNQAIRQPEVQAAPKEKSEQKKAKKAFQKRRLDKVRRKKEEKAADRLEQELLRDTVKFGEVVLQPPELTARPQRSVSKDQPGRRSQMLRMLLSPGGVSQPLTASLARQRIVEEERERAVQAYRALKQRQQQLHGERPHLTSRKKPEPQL
UniProt O14936: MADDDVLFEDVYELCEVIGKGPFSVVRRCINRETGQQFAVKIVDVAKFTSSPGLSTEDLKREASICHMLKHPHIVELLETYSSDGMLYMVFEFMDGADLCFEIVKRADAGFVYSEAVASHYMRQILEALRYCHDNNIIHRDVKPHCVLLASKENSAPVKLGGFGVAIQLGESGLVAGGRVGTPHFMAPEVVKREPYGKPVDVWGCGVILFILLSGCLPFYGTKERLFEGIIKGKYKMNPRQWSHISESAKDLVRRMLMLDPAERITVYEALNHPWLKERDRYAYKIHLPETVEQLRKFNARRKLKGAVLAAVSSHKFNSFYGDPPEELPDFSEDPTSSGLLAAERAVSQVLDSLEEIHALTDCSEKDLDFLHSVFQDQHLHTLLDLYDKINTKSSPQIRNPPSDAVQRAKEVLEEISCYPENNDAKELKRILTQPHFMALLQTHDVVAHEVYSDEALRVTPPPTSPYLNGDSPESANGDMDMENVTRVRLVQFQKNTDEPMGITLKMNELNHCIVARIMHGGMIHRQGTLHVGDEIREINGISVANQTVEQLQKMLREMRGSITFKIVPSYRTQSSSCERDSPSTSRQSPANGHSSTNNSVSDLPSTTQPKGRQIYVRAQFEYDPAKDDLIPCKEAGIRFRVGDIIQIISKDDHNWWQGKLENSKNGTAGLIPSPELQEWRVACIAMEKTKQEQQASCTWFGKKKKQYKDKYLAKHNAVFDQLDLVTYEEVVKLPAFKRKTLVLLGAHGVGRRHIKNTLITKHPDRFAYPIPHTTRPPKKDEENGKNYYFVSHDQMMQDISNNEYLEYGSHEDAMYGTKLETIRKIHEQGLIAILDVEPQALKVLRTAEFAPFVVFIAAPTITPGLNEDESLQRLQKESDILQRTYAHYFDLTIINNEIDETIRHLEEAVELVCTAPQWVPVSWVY
UniProt A6NKD9: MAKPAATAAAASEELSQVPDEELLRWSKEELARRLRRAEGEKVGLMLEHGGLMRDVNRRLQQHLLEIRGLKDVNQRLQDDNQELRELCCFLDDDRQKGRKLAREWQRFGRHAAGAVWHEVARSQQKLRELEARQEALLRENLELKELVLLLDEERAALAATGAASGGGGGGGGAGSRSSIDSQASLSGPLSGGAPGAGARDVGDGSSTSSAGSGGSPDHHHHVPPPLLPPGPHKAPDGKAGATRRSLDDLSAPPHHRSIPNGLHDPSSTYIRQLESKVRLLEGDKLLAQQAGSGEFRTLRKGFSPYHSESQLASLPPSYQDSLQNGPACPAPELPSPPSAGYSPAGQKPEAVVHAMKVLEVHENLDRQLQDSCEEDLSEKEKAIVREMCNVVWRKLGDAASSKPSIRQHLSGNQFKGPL
UniProt O95400: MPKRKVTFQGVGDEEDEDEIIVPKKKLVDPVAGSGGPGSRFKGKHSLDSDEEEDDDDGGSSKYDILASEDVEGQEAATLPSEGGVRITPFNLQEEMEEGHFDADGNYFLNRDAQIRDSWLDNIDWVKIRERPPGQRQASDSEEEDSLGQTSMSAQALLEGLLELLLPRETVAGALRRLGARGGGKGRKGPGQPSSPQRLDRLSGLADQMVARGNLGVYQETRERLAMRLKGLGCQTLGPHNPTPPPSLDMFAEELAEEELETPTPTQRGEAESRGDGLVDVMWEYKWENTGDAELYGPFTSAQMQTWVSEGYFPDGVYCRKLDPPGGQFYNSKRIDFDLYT
UniProt Q9UK58: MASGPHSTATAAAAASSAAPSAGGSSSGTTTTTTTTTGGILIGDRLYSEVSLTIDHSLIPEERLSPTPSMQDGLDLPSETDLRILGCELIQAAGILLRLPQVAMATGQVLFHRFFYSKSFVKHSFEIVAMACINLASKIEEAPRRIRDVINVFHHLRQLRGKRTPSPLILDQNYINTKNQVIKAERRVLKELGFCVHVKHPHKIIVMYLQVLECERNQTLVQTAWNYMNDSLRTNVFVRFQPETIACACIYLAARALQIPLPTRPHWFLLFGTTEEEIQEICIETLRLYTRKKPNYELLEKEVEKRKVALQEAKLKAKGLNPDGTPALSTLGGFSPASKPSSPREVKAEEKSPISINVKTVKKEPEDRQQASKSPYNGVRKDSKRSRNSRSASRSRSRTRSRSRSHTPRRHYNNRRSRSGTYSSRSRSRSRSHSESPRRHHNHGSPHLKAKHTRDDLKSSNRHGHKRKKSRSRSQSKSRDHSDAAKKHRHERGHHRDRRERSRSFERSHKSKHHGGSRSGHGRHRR
UniProt P20138, whole entry, looked up: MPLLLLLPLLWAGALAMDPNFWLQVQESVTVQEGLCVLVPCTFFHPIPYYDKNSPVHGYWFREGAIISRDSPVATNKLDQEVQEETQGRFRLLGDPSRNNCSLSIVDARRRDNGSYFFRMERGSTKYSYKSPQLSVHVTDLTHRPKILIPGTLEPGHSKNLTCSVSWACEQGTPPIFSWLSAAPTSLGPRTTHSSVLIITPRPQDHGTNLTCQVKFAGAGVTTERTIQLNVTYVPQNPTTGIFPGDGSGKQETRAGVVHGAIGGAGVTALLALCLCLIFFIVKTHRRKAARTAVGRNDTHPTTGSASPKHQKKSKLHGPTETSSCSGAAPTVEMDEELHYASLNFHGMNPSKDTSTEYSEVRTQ
UniProt P55210: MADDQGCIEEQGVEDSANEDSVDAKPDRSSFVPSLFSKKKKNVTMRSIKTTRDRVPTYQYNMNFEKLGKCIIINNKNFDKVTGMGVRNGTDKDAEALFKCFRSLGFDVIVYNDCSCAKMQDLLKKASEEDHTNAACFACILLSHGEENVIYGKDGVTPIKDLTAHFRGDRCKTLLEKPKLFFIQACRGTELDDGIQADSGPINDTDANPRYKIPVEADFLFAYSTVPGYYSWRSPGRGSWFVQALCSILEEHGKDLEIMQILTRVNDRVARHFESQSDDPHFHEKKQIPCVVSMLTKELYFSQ
UniProt P16070: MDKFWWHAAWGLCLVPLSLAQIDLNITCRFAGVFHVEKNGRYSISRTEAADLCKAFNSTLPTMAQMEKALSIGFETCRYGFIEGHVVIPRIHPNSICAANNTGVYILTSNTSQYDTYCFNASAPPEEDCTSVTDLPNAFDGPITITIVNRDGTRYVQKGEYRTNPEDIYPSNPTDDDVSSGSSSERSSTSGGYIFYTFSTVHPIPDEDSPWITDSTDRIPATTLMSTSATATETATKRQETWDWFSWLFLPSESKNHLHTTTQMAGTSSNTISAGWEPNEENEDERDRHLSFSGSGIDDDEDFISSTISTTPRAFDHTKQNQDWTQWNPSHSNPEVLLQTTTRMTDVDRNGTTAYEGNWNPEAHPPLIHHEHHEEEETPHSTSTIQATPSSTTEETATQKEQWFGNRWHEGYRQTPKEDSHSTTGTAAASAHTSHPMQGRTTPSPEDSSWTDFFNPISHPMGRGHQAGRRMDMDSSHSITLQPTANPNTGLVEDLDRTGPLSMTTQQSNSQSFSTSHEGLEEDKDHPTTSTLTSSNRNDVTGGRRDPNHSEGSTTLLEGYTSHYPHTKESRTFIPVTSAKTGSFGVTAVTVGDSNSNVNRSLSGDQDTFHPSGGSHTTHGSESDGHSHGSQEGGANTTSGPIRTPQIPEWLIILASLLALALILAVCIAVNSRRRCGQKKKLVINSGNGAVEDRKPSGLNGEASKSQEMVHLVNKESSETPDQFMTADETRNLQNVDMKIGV
UniProt P34810: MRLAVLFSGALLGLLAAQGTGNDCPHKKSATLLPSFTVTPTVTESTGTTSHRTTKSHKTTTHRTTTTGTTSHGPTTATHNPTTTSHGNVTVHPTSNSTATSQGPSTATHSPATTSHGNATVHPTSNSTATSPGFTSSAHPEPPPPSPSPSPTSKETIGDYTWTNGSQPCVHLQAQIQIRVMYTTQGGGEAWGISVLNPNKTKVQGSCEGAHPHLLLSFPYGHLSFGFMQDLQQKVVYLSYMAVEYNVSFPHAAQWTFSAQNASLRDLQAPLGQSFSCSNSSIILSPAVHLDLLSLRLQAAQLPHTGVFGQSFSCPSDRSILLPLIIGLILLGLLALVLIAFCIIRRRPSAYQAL
UniProt O95273: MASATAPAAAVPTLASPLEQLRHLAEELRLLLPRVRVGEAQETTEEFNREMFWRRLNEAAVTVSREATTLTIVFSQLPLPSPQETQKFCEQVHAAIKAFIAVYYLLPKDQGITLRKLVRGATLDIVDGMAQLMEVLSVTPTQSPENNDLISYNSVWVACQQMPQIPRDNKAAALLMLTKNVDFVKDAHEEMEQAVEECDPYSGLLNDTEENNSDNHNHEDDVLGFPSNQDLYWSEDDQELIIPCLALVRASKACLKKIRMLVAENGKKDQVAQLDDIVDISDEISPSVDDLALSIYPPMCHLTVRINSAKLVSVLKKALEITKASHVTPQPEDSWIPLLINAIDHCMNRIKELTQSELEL
UniProt Q96A19: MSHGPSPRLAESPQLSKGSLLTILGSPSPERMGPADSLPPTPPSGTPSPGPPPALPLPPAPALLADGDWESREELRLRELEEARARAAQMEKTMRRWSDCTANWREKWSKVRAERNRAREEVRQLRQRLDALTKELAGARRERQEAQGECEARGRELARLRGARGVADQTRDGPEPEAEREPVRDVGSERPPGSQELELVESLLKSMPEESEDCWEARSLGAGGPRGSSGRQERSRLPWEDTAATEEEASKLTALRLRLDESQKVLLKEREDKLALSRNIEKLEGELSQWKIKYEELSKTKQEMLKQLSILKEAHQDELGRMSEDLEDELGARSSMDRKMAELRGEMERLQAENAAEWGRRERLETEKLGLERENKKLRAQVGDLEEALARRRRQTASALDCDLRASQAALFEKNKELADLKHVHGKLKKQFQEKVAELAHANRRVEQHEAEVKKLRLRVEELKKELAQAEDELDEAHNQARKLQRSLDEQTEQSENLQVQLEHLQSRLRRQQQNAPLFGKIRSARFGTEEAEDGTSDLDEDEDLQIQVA

[2] = compound: CO[C@H]1C[C@@H]2CC[C@@H](C)[C@@](O)(O2)C(=O)C(=O)N2CCCC[C@H]2C(=O)O[C@H]([C@H](C)C[C@@H]2CC[C@H](n3cnnn3)[C@H](OC)C2)CC(=O)[C@H](C)/C=C(\C)[C@@H](O)[C@@H](OC)C(=O)[C@H](C)C[C@H](C)/C=C/C=C/C=C/1C [zotarolimus]
How it was run: as §1

[3] = compound: COc1cc(Nc2ncc3c(n2)-c2ccc(Cl)cc2C(c2c(F)cccc2OC)=NC3)ccc1C(=O)O [alisertib]
How it was run: as §1

[4] = compound: COc1cc2nc(-c3cc(F)ccc3O)nc(N[C@@H]3CNC[C@H]3C(C)(C)O)c2cc1OC
How it was run: as §1

[5] = compound: COc1cc2ncnc(Nc3ccc(F)c(Cl)c3)c2cc1OCCCN1CCOCC1 [gefitinib]
How it was run: as §1

[6] = compound: COc1cccc2cc(-c3nc([C@H]4CC[C@H](C(=O)O)CC4)n4ncnc(N)c34)[nH]c12
How it was run: as §1

[7] = compound: CS(=O)(=O)CCNCc1ccc(-c2ccc3ncnc(Nc4ccc(OCc5cccc(F)c5)c(Cl)c4)c3c2)o1 [lapatinib]
How it was run: as §1

[8] = compound: CS(=O)(=O)N1CCN(Cc2cc3nc(-c4cccc5[nH]ncc45)nc(N4CCOCC4)c3s2)CC1 [pictilisib]
How it was run: as §1

[9] = compound: C[C@@H](Oc1cc(-c2cnn(C3CCNCC3)c2)cnc1N)c1c(Cl)ccc(F)c1Cl [crizotinib]
How it was run: as §1

[10] = compound: C[C@@H]1COCCN1C2=NC(=NC(=C2)C3(CC3)S(=O)(=O)C)C4=C5C=CNC5=CC=C4
How it was run: as §1

[11] = compound: C[C@H](C1=CC=C(C=C1)C(=O)NC2=C3C=CNC3=NC=C2)N
How it was run: as §1

[12] = compound: C[C@H](Nc1ncnc2nc[nH]c12)c1cc2cccc(Cl)c2c(=O)n1-c1ccccc1 [duvelisib]
How it was run: as §1

[13] = compound: Cc1cc(Nc2cc(CN3CCOCC3)c3nc(C)c(Cc4ccc(Cl)cc4F)n3n2)n[nH]1 [gandotinib]
How it was run: as §1

[14] = compound: Cc1cc(Nc2cc(N3CCN(C)CC3)nc(Sc3ccc(NC(=O)C4CC4)cc3)n2)n[nH]1 [tozasertib]
How it was run: as §1

[15] = compound: Cc1cc(SCc2sc(-c3ccc(C(F)(F)F)cc3)nc2C)ccc1OCC(=O)O
How it was run: as §1

[16] = compound: Cc1ccc(-n2nc(C(C)(C)C)cc2NC(=O)Nc2ccc(OCCN3CCOCC3)c3ccccc23)cc1 [doramapimod]
How it was run: as §1

[17] = compound: CON(C)C(=O)N1N=C(c2cc(F)ccc2F)S[C@@]1(CCCN)c1ccccc1 [filanesib]
How it was run: as §1

[18] = compound: COc1cc(C(=O)O)ccc1NC(=O)[C@@H]1N[C@@H](CC(C)(C)C)[C@](C#N)(c2ccc(Cl)cc2F)[C@H]1c1cccc(Cl)c1F [idasanutlin]
How it was run: as §1

[19] = compound: CS(=O)(=O)c1ccc(-c2cnc(N)c(C(=O)Nc3ccccc3)n2)cc1
How it was run: as §1

[20] = compound: Cc1ccc(C(=O)N(CCCN)[C@@H](c2nc3cc(Cl)ccc3c(=O)n2Cc2ccccc2)C(C)C)cc1 [ispinesib]
How it was run: as §1

Row | Target | log2 fold change [1] | log2 fold change [2] | log2 fold change [3] | log2 fold change [4] | log2 fold change [5] | log2 fold change [6] | log2 fold change [7] | log2 fold change [8] | log2 fold change [9] | log2 fold change [10] | log2 fold change [11] | log2 fold change [12] | log2 fold change [13] | log2 fold change [14] | log2 fold change [15] | log2 fold change [16] | log2 fold change [17] | log2 fold change [18] | log2 fold change [19] | log2 fold change [20]
1 | CD99L2 isoform 5 (UniProt Q8TCZ2) | inactive: 0.092 | inactive: 0.005 | inactive: -0.01 | inactive: 0.196 | inactive: 0.073 | inactive: -0.041 | inactive: -0.103 | inactive: 0.121 | inactive: 0.044 | inactive: 0.017 | inactive: 0.035 | inactive: 0.014 | inactive: -0.152 | inactive: 0.035 | inactive: 0.016 | inactive: 0.037 |  |  |  | 
2 | CCNYL1 (UniProt Q8N7R7) | inactive: -0.122 | inactive: 0.11 | inactive: -0.383 |  | inactive: -0.116 | inactive: 0.036 |  | inactive: -0.178 | inactive: -0.06 | inactive: 0.069 | inactive: 0.143 | inactive: 0.072 | inactive: 0.049 |  | inactive: 0.162 | inactive: -0.006 | inactive: -0.031 | inactive: 0.036 | inactive: 0.077 | 
3 | CCDC82 (UniProt Q8N4S0) | inactive: -0.356 | inactive: 0.013 | inactive: 0.034 | inactive: -0.013 | inactive: 0.052 | inactive: -0.102 | inactive: 0.043 |  | inactive: 0.148 | inactive: -0.174 | inactive: 0.015 |  |  |  | inactive: -0.119 | inactive: -0.165 |  | inactive: 0 |  | inactive: -0.026
4 | CCDC137 (UniProt Q6PK04) | inactive: -0.14 | inactive: 0.15 | inactive: -0.222 |  | inactive: -0.05 | inactive: -0.217 |  | inactive: 0.169 | inactive: 0.03 | inactive: -0.022 | inactive: 0.544 | inactive: -0.143 | inactive: 0.225 | inactive: 0.106 | inactive: -0.098 | inactive: 0.294 | inactive: 0.555 | inactive: 0.33 | inactive: 0.214 | inactive: -0.004
5 | CCDC57 (UniProt Q2TAC2) | inactive: 0.006 | inactive: -0.081 | inactive: 0.013 | inactive: -0.008 | inactive: 0.009 | inactive: 0.063 | inactive: 0.07 |  | inactive: 0.06 | inactive: 0.065 | inactive: 0.139 |  |  |  |  | inactive: -0.035 | inactive: 0.01 |  | inactive: -0.026 | inactive: -0.034
6 | CASK (UniProt O14936) | inactive: 0.046 |  |  |  |  |  |  |  |  |  |  |  |  |  | inactive: -0.039 | inactive: 0.034 |  | inactive: -0.031 |  | 
7 | CCDC85C (UniProt A6NKD9) | inactive: -0.196 | inactive: -0.096 | inactive: -0.05 | inactive: -0.297 |  | inactive: 0.192 | inactive: 0.119 | inactive: 0.05 | inactive: 0.039 | inactive: 0.05 | inactive: -0.193 | inactive: 0.061 | inactive: -0.021 | inactive: -0.021 | inactive: -0.09 | inactive: 0.032 | inactive: 0.13 | inactive: -0.09 | inactive: 0.362 | inactive: -0.124
8 | CD2BP2 (UniProt O95400) | inactive: -0.007 |  |  | inactive: 0.106 |  |  | inactive: 0.104 |  | inactive: 0.04 | inactive: -0.157 |  | inactive: 0.065 |  | inactive: 0.16 | inactive: -0.068 | inactive: 0.012 |  |  |  | 
9 | CCNL1 (UniProt Q9UK58) |  |  | inactive: 0.119 |  |  | inactive: 0.167 |  |  |  |  |  |  |  |  |  |  |  |  |  | 
10 | CD33 (UniProt P20138) |  |  |  | inactive: -0.159 |  |  | inactive: 0.054 | inactive: -0.079 |  | inactive: -0.023 |  | inactive: 0.134 | inactive: 0.123 | inactive: -0.041 | inactive: -0.131 |  | inactive: 0.112 |  | inactive: -0.16 | inactive: 0.097
11 | CASP7 isoform 3 (UniProt P55210) |  |  |  |  | inactive: 0.282 |  |  | inactive: 0.234 |  | inactive: 0.3 |  |  | inactive: -0.155 |  | inactive: -0.271 |  |  |  |  | 
12 | CD44 (UniProt P16070) |  | inactive: 0.074 |  | inactive: 0.143 |  |  | inactive: -0.035 |  |  |  | inactive: 0.084 | inactive: -0.049 |  | inactive: -0.03 | inactive: -0.02 |  | inactive: 0.065 | inactive: -0.021 | inactive: 0.065 | 
13 | CCNT2 (UniProt O60583) |  |  | inactive: 0.039 | inactive: -0.291 | inactive: 0.163 | inactive: -0.131 | inactive: 0.085 | inactive: 0.121 |  | inactive: -0.148 |  |  | inactive: -0.065 |  | inactive: 0.047 |  | inactive: 0.102 | inactive: 0.143 | inactive: -0.226 | inactive: -0.147
14 | CD68 (UniProt P34810) |  |  | inactive: -0.126 |  |  | inactive: -0.025 |  |  |  |  |  |  |  |  |  |  | inactive: 0.05 |  | inactive: -0.016 | 
15 | CCNDBP1 (UniProt O95273) |  | inactive: -0.102 | inactive: -0.012 |  | active: -0.33 | inactive: 0.125 |  | inactive: 0.009 |  |  | inactive: 0.06 |  | inactive: -0.066 |  | inactive: 0.043 |  | inactive: 0.016 | inactive: 0.063 | inactive: 0.016 | inactive: -0.029
16 | CCDC102A (UniProt Q96A19) |  | inactive: -0.088 |  | inactive: 0.008 |  |  | inactive: 0.171 | inactive: 0.302 |  | inactive: 0.076 | inactive: -0.296 |  | inactive: -0.086 |  |  |  |  | inactive: 0.012 |  | 

In a second layout: results already given
Row,Target,log2 fold change [1],log2 fold change [2],log2 fold change [3],log2 fold change [4],log2 fold change [5],log2 fold change [6],log2 fold change [7],log2 fold change [8],log2 fold change [9],log2 fold change [10],log2 fold change [11],log2 fold change [12],log2 fold change [13],log2 fold change [14],log2 fold change [15],log2 fold change [16],log2 fold change [17],log2 fold change [18],log2 fold change [19],log2 fold change [20]
4,CCDC137 (UniProt Q6PK04),inactive: -0.14,inactive: 0.15,inactive: -0.222,,inactive: -0.05,inactive: -0.217,,inactive: 0.169,inactive: 0.03,inactive: -0.022,inactive: 0.544,inactive: -0.143,inactive: 0.225,inactive: 0.106,inactive: -0.098,inactive: 0.294,inactive: 0.555,inactive: 0.33,inactive: 0.214,inactive: -0.004
5,CCDC57 (UniProt Q2TAC2),inactive: 0.006,inactive: -0.081,inactive: 0.013,inactive: -0.008,inactive: 0.009,inactive: 0.063,inactive: 0.07,,inactive: 0.06,inactive: 0.065,inactive: 0.139,,,,,inactive: -0.035,inactive: 0.01,,inactive: -0.026,inactive: -0.034

Source: the supplement of paper PMC10849652
